Results reported in US6476018B1, “Fused imidazole derivatives as multidrug resistance modulators” (Janssen Pharmaceutica N.V., priority 1996, dated 2002).
Some results were stated once for a whole list of compounds, not compound by compound.

Test system: K562/C1000, a human multidrug resistant cancer cell line
Assay: MDR in vitro test: sensitization of K562/C1000 cell growth to a classic cytostatic
Type: cell-based
Conditions: classic cytostatic e.g. vinblastine 10^-12 to 10^-5 M, fixed concentration 10^-6 M of compound

Row | SMILES | sensitization ratio SR = IC50(cytostatic) over IC50(cytostatic/compound)
1 | COC(=O)c1cnc2n1CCc1ccccc1C2=C1CCN(CCc2ccc(OCc3ccc4ccccc4n3)cc2)CC1 [Compound 6, methyl 6,11-dihydro-11-[1-[2-[4-(2-quinolinylmethoxy)phenyl]ethyl]-4-piperidinylidene]-5H-imidazo[2,1-b][3]-benzazepine-3-carboxylate] | ≥ 5
2 | c1ccc2c(c1)CCn1ccnc1C2=C1CCN(CCOc2ccc(OCc3ccc4ccccc4n3)cc2)CC1 [Compound 20] | ≥ 5
